Paper PMC2267792
No constants are given. Whether binding was seen depends on the method and setting. Some results given as binding are weak or reduced against the parent protein; the word gives no strength. Tags and fused reporters may be left off the sequences shown.

T1: GST-Ufd2 (S. cerevisiae) (UniProt P54860)
T1 sequence: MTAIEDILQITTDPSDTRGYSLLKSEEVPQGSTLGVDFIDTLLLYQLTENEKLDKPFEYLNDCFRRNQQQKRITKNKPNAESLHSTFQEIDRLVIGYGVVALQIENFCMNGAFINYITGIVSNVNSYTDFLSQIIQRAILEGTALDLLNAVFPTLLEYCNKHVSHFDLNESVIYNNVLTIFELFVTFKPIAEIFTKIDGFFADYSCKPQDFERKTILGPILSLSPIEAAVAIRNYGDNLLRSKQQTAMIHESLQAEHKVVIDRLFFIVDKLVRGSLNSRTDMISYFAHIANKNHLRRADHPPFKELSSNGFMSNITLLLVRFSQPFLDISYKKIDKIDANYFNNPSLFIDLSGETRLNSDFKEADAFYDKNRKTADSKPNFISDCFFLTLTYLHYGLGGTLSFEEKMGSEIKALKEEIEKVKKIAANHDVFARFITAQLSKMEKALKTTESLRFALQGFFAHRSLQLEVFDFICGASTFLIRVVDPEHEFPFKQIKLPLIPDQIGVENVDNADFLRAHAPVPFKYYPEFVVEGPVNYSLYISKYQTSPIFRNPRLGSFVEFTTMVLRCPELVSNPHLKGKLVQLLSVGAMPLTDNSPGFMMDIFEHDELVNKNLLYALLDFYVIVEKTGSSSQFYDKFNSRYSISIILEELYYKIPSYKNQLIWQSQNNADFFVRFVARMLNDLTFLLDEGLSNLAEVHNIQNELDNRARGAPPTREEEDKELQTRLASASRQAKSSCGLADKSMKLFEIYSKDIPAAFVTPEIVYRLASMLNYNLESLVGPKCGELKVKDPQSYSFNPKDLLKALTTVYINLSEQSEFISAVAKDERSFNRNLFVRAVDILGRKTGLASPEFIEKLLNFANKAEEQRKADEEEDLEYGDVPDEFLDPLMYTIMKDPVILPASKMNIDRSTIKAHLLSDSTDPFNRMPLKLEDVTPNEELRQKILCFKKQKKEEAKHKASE


Molecular target: T1, GST-Ufd2 (S. cerevisiae)
Assay: pull-down; glutathione sepharose saturated with GST-Ufd2; purified Rad23 proteins added in 50 mM HEPES pH 7.5, 150 mM NaCl, 5 mM EDTA, 2% Triton X-100, 0.2 mg/ml BSA; 4°C 60 min; wash PBS with 0.1% Tween-20; Western blot for Rad23; both purified

Row | binding | Binder
1 | binds | wild-type Rad23 (protein, UniProt P32628 1-398, 32P-phosphate at the N-terminal HMK site (native gel assay only)) MVSLTFKNFKKEKVPLDLEPSNTILETKTKLAQSISCEESQIKLIYSGKVLQDSKTVSECGLKDGDQVVFMVSQKKSTKTKVTEPPIAPESATTPGRENSTEASPSTDASAAPAATAPEGSQPQEEQTATTERTESASTPGFVVGTERNETIERIMEMGYQREEVERALRAAFNNPDRAVEYLLMGIPENLRQPEPQQQTAAAAEQPSTAATTAEQPAEDDLFAQAAQGGNASSGALGTTGGATDAAQGGPPGSIGLTVEDLLSLRQVVSGNPEALAPLLENISARYPQLREHIMANPEVFVSMLLEAVGDNMQDVMEGADDMVEGEDIEVTGEAAAAGLGQGEGEGSFQVDYTPEDDQAISRLCELGFERDLVIQVYFACDKNEEAAANILFSDHAD
2 | binds | Rad23 K43E (protein, UniProt P32628 1-398, 32P-phosphate at the N-terminal HMK site (native gel assay only)) MVSLTFKNFKKEKVPLDLEPSNTILETKTKLAQSISCEESQIELIYSGKVLQDSKTVSECGLKDGDQVVFMVSQKKSTKTKVTEPPIAPESATTPGRENSTEASPSTDASAAPAATAPEGSQPQEEQTATTERTESASTPGFVVGTERNETIERIMEMGYQREEVERALRAAFNNPDRAVEYLLMGIPENLRQPEPQQQTAAAAEQPSTAATTAEQPAEDDLFAQAAQGGNASSGALGTTGGATDAAQGGPPGSIGLTVEDLLSLRQVVSGNPEALAPLLENISARYPQLREHIMANPEVFVSMLLEAVGDNMQDVMEGADDMVEGEDIEVTGEAAAAGLGQGEGEGSFQVDYTPEDDQAISRLCELGFERDLVIQVYFACDKNEEAAANILFSDHAD
3 | binds | Rad23 S73E (protein, UniProt P32628 1-398, 32P-phosphate at the N-terminal HMK site (native gel assay only)) MVSLTFKNFKKEKVPLDLEPSNTILETKTKLAQSISCEESQIKLIYSGKVLQDSKTVSECGLKDGDQVVFMVEQKKSTKTKVTEPPIAPESATTPGRENSTEASPSTDASAAPAATAPEGSQPQEEQTATTERTESASTPGFVVGTERNETIERIMEMGYQREEVERALRAAFNNPDRAVEYLLMGIPENLRQPEPQQQTAAAAEQPSTAATTAEQPAEDDLFAQAAQGGNASSGALGTTGGATDAAQGGPPGSIGLTVEDLLSLRQVVSGNPEALAPLLENISARYPQLREHIMANPEVFVSMLLEAVGDNMQDVMEGADDMVEGEDIEVTGEAAAAGLGQGEGEGSFQVDYTPEDDQAISRLCELGFERDLVIQVYFACDKNEEAAANILFSDHAD
